Hit rate of the full screen: of about 320,000 compounds, about 480 (0.15%) were called active. The inconclusive results got no clear call from the source; some entries with a clear call stand among them for comparison. Cut-off read from the data, not from the text of the source: active = inhibition above about 26% (passing the limit was not always enough); inconclusive = no clear call, values can overlap the other calls.
These molecules were tested against Histone deacetylase 3 (Homo sapiens) (UniProt O15379) (assay: HDAC3 deacetylase inhibitors, primary screen, biochemical, fluorescence, cell-free homogeneous (AID 2718)). Conditions: recombinant HDAC3, fluorogenic peptide/trypsin coupled, at 8.3 µM, hits give high values.

By UniProt entry, the sequences of proteins in these tests, tags left out. Where a name states a change or a piece, a line headed by the entry shows the natural chain unless it says otherwise.
UniProt O15379: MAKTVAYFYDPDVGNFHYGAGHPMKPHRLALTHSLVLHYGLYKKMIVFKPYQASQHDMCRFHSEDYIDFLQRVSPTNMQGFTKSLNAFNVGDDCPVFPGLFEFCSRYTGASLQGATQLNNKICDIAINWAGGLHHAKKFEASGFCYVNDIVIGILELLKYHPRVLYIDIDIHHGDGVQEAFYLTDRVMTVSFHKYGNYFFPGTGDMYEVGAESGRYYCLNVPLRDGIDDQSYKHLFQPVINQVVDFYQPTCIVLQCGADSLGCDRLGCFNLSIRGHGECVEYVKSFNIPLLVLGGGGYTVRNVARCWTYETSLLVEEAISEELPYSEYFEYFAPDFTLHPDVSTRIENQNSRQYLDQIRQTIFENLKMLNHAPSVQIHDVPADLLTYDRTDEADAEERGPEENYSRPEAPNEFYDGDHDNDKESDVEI

Row | SMILES | inhibition
1 | COC(=O)C1=C(C)NC(=S)NC1c1ccc(-c2cccc(Cl)c2)o1 (configuration not stated) | active: 29%
2 | COc1ccc(C2(CNC(=O)/C=C\c3ccco3)CCCC2)cc1OC | inactive: 0.00155%
3 | C/C(=C\c1ccccc1)C(=O)n1nnc2ccccc21 | active: 28.1%
4 | CC(C)C(OC(=O)CCCC(=O)Nc1nccs1)C(=O)NC1CCCCC1 (configuration not stated) | inconclusive: 10.9%
5 | Cc1cccc(CCNC(=O)C2CCN(S(=O)(=O)c3cccc4cccnc34)CC2)c1 | inconclusive: 21.1%
6 | CCOc1cc(/C=C2\CCCC(C(=O)C(F)(F)F)=C2O)ccc1O | active: 34.8%
7 | Cn1c2c(c(=O)n(C)c1=O)C(C(F)(F)F)(C(F)(F)F)N=C(c1ccc(Cl)cc1)N2 | inconclusive: 18.6%
8 | CCCCCCC(=O)N(O)C1CC(=O)N(c2ccc(F)cc2)C1=O (configuration not stated) | active: 79%
9 | CCCCOc1ccc(C(=O)OCC(=O)Nc2cc(C)c(C)cc2[N+](=O)[O-])cc1 | inconclusive: 21.6%
10 | CCc1ccccc1N=C1S/C(=C/c2ccccc2OCC(=O)N2CCOCC2)C(=O)N1C | inconclusive: 32.4%
11 | COc1ccc(C(=O)NCc2cccnc2)cc1OC | inactive: 1.86%
12 | CCN(C(=O)CSc1ncccc1C(=O)Oc1cccc([N+](=O)[O-])c1)c1cccc(C)c1 | inconclusive: 24.5%
13 | COc1ccc(C(CNC(=O)CN(C)S(=O)(=O)c2ccc(C)cc2)N2CCCC2)cc1 (configuration not stated) | inconclusive: 12.4%
14 | O=C(O)C1=C[C@@H](c2ccc(C(F)(F)F)cc2)C[C@@H](OCc2ccc(CO)cc2)O1 | active: 34%
15 | O=C(CSCc1ccco1)c1cccs1 | active: 91.5%
16 | CC(=O)Nc1ccc(C(=O)CSc2nccc(=O)[nH]2)cc1 | active: 61.7%
17 | Cc1ccc(S(=O)(=O)n2ccc(OC(=O)c3cccs3)n2)cc1 | active: 89.8%
18 | COc1ccc(C2=NN(CCC(=O)NC3CCC(C)CC3)C(=O)CC2)cc1 (configuration not stated) | inconclusive: 14.1%
19 | C[C@@]12CCC=C[C@H]1[C@H](c1ccc(F)c(/C=C/c3ccccc3)c1)N(Cc1ccccc1)C2=O | active: 31.3%
20 | COc1ccc(CN2CCN(C(=O)CCC(=O)c3ccc(C)s3)CC2)cc1OC | inconclusive: 29.3%
21 | COc1ccc([C@@H]2[C@@H]3C(=O)N(C(C)(C)C)C(=O)[C@@H]3[C@]3(Cc4ccccc4)C(=O)N(c4ccc(C)cc4)C(=O)N23)cc1 | inactive: 10.8%
22 | Clc1cccc(-c2ccc3ncnc(NCc4cccnc4)c3c2)c1 | inconclusive: 20.2%

By substructure: the compounds so far with a nitro group on carbon.
Row | SMILES | inhibition
9 | CCCCOc1ccc(C(=O)OCC(=O)Nc2cc(C)c(C)cc2[N+](=O)[O-])cc1 | inconclusive: 21.6%
12 | CCN(C(=O)CSc1ncccc1C(=O)Oc1cccc([N+](=O)[O-])c1)c1cccc(C)c1 | inconclusive: 24.5%

The list goes on:

Row | SMILES | inhibition
23 | O=C(NCc1ccccn1)c1cccc(NS(=O)(=O)c2ccccc2)c1 | inactive: -4.07%
24 | Nc1nc2ccccc2n1C(=O)c1ccccc1 | inconclusive: 23%
25 | CCOc1ccccc1CNC(=O)Cn1ccc2cc(S(=O)(=O)N3CCC(C)CC3)ccc21 | inconclusive: 26%
26 | CC(C)Oc1cccc(C(=O)C2CCCN(C(=O)CCc3cnn(C)c3)C2)c1 (configuration not stated) | inactive: 4.6%
27 | Clc1nccnc1N/N=C/c1ccc(Br)cc1 | inactive: 3.63%
28 | CC1(C)Cc2c(C#N)c(NCCc3ccccc3)nc(-c3ccco3)c2CO1 | inactive: -3.57%
29 | O=C(O)CC(Cc1ccccc1)(C(=O)O)c1ccccc1 (configuration not stated) | inconclusive: 16%
30 | CCC(CC)C(=O)N1CCN(c2ccccc2)CC1 | inactive: 6.98%
31 | CCN(CC)CCCn1c2c(c(SCC(=O)Nc3nc(C)cs3)nc1=O)CCC2 | inconclusive: 20.2%
32 | COc1ccc(Cn2nnnc2CN2CCN(c3ccc(OC)cc3)CC2)cc1 | inactive: 1.71%
33 | Cc1cccc(CSC2=NCCN2C(=O)c2ccco2)c1 | inconclusive: 21.7%
34 | CCOC(=O)CSC1=C(C#N)C(c2ccco2)C(C(=O)Nc2cccc(C(F)(F)F)c2)=C(C)N1 (configuration not stated) | inconclusive: 23.5%
35 | Cc1cccc(Nc2ncnc3ccc(Br)cc23)c1 | inactive: 6.64%
36 | O=C(Cn1cc(C(=S)N2CCOCC2)c2ccccc21)N1CCOCC1 | inactive: 0.679%
37 | CC(C)c1ccc(OCC(=O)N(Cc2ccccc2)c2ccccn2)cc1 | inconclusive: 28.2%
38 | COc1ccc(NC(=O)C(CC(=O)O)Cc2ccc(Cl)cc2)cc1 (configuration not stated) | inactive: -8.96%
39 | COC(=O)c1sc(N)nc1C(C)(C)C | inconclusive: 10.4%
40 | O=C(/C=C/c1ccccc1)Nc1cc(C(=O)O)cc(C(=O)O)c1 | inconclusive: 24.8%
41 | O=C(O)c1ccc(NCc2ccc3c(c2)OCO3)cc1 | inconclusive: 27.8%
42 | CC(C)(C)c1ccc(C(=O)NCCC(=O)NCc2cccs2)cc1 | inconclusive: 19.5%
43 | CCOC(=O)C1CCN(Cc2c(F)cccc2Cl)CC1 | inconclusive: 17.4%
44 | CS(=O)(=O)c1ccccc1-c1nnc(NC(=O)Cc2ccccc2)o1 | inconclusive: 11.2%

Row | SMILES | inhibition
45 | COc1ccc(N2CCN(c3nccs3)CC2)cc1 | inactive: -4.63%
46 | COc1ccc(NC(=O)C2=Cc3ccccc3OC2)cc1 | inconclusive: 24.5%
47 | O=C(COC(=O)C1CCN(c2ccc(C(F)(F)F)cn2)CC1)Nc1ccc(Cl)cc1 | inconclusive: 27%
48 | Cc1nc(SCc2ccc(O)c([N+](=O)[O-])c2)c([N+](=O)[O-])[nH]1 | inconclusive: 23.1%
49 | CC1=C(C(=O)Nc2ccccc2)C(c2ccc(C)o2)n2c(s/c(=C/c3ccccc3)c2=O)=N1 (configuration not stated) | inconclusive: 3.54%
50 | CC1CCCC/C1=N\NC(=S)Nc1ccccc1 (configuration not stated) | inactive: 7.81%
51 | O=C(N/N=C/c1ccccc1)c1[nH]c2ccc(Br)cc2c1-c1ccccc1 | inactive: -0.723%
52 | Cc1ccc(-c2csc(NCCn3c(C)nc4cc(C(F)(F)F)ccc43)n2)cc1 | inconclusive: 20.7%
53 | COC(=O)c1sc(N2C(=O)C(=O)/C(=C(/O)c3ccc(C)cc3)C2c2ccco2)nc1C (configuration not stated) | inactive: 4.69%
54 | COc1ccc(-c2cc(C(=O)NC3CCCC3)c3ccccc3n2)cc1 | inconclusive: 18.8%
55 | CC1=C(C(=O)OCC2CCCO2)C(c2coc3ccc(Cl)cc3c2=O)C2=C(CCCC2=O)N1 (configuration not stated) | inconclusive: 25.1%
56 | COc1cccc(/C=N/Nc2ncnc(Cl)c2N)c1O | inconclusive: 27%
57 | CCOC(=O)Cc1nnc(NC(=O)CSc2ccc(C)cc2)s1 | inconclusive: 28.4%
58 | CCCCN(C(=O)c1ccco1)C1CCS(=O)(=O)C1 (configuration not stated) | inconclusive: 11.9%
59 | Cc1ccc(C(=O)CSc2nnc(-c3ccncc3)n2C)cc1 | inconclusive: 12.3%
60 | COc1ccc(OC)c(S(=O)(=O)N2CCC(C(=O)Nc3cc(C)ccc3C)CC2)c1 | inconclusive: 13.7%
61 | COc1ccc(-c2csc3ncnc(N4CCN(S(=O)(=O)c5cccc(F)c5)CC4)c23)cc1 | inconclusive: 26.8%
62 | c1coc(CNc2ncnc3c2oc2ccccc23)c1 | inconclusive: 21.4%
63 | CCOc1cc2[nH]c(=S)n(CCN3CCC(C)CC3)c(=O)c2cc1OCC | inconclusive: 20.3%
64 | O=C1c2cnc3nc(SCc4ccc(Cl)cc4)nn3c2CC2c3ccccc3CCN12 (configuration not stated) | inactive: 0.473%
65 | C=CCC[C@H](Cc1ccc(F)cc1)C(=O)OC[C@@H](NC(=O)[C@@H](CC=C)CC(=O)N[C@H](CO)Cc1ccccc1)C(C)(C)C | active: 41.7%
66 | COc1cc(/C=C2\SC(=S)N(NC(C)=O)C2=O)ccc1OC(=O)c1ccco1 | active: 27.4%

Row | SMILES | inhibition
67 | CC1(C)Cc2cccc(C(=O)NC3CCN(Cc4ccccc4)CC3)c2O1 | inconclusive: 22.1%
68 | O=C(Nc1ccc(N2CCCCC2)c(Cl)c1)c1ncn[nH]1 | inconclusive: 14.1%
69 | N=c1c2c(-c3ccccc3)c(-c3ccccc3)n(Cc3ccco3)c2ncn1Cc1ccccc1 | inconclusive: 31.5%
70 | Cn1c(SCc2cnc(-c3ccccc3)s2)nnc1C1COc2ccccc2O1 (configuration not stated) | inconclusive: 16.7%
71 | O=C(CSCc1ccc([N+](=O)[O-])cc1)Nc1cccc(C(=O)Nc2ccccc2C(=O)O)c1 | inconclusive: 8.94%
72 | Cc1ccccc1Cn1nc(C)c(NC(=O)/C=C/c2cnn(C)c2C)c1C | inconclusive: 22.6%
73 | COc1cccc(N2CCN(C(=O)CN(C)S(=O)(=O)c3ccc4c(c3)c(=O)n(C)c(=O)n4C)CC2)c1 | inactive: 5.47%
74 | Cc1cccc(NC(=O)CCCN=C2NS(=O)(=O)c3ccccc32)c1C | inconclusive: 14.1%
75 | O=C1OC(c2ccccc2)=N/C1=C\C=C\c1ccco1 | active: 41.4%
76 | CCOC(=O)N1CCN(C(c2cccnc2)c2ccc3cccnc3c2O)CC1 (configuration not stated) | inconclusive: 19.2%
77 | Cc1ccc(CN2CCNC(=O)C2CC(=O)NC2CCCCCC2)o1 (configuration not stated) | inactive: 2.75%
78 | CC(=O)c1ccc(S(=O)(=O)Nc2cccc(-c3cn4c(n3)SCC4)c2)cc1 | inconclusive: 10.5%
79 | Cc1ccc(CN2CCN(/N=C/c3ccc(C(=O)O)cc3)CC2)c(C)c1 | inactive: 5.73%
80 | COc1ccc(NS(=O)(=O)c2cc(NC(=O)c3nc4nc(C)cc(C)n4n3)ccc2C)cc1 | inactive: 4.81%
81 | Cc1ccc(C(=O)Oc2ccc(-c3nnco3)cc2)o1 | active: 99.9%
82 | COc1ccc(S(=O)(=O)n2nc(OC(=O)c3ccco3)cc2N)cc1 | active: 71.2%
83 | CC1CC(C)(C)NC(=S)N1CCCC(=O)N1CCN(c2ccc(F)cc2)CC1 (configuration not stated) | inconclusive: 15%
84 | O=C(c1cnn(C(=O)c2ccc(O)cc2)c1)c1ccccc1O | active: 75.7%
85 | CCOc1ccc2nc(N3CCCC(C(=O)NC4CCCC4)C3)sc2c1 (configuration not stated) | inactive: 3.95%
86 | CC(C)(C)OC(=O)NCCCCCc1cn([C@@H](CO)C(=O)NCCCCCCCCCCC(=O)N2CCN(C(=O)OC(C)(C)C)CC2)nn1 | active: 30.7%
87 | CC(C)[C@@H]1N[C@]2(C(=O)Nc3ccccc32)[C@@H]2C(=O)N(c3cccc(C(F)(F)F)c3)C(=O)[C@@H]21 | inconclusive: 24.5%

— PubChem BioAssay AID2718 (Broad Institute, 2010)
